In the supplement of paper PMC10398353:
Structures can show the parent of a compound that is named as a salt. ± gives the standard deviation of the averaged measurements. The list shows a part of the results. This is a noisy data set.

What follows are compounds tested on Salmonella enterica serovar Typhimurium ST313 D23580 (assay: normalized bacterial growth (OD600 20 h minus 0 h, interquartile-mean normalized) (fraction of plate interquartile mean); higher = more bacterial growth (less inhibition)). Conditions: LPM (pH 5.8, low phosphate, low Mg2+), concentration: 10 µM, temperature: 37 °C.
Work on `O.O.O.O.O.O.O.O.O.O.O.O.O.O.O.O.O=S(=O)([O][Al])OC[C@H]1O[C@@](COS(=O)(=O)[O][Al])(O[C@H]2O[C@H](COS(=O)(=O)[O][Al])[C@@H](OS(=O)(=O)[O][Al])[C@H](OS(=O)(=O)[O][Al])[C@H]2OS(=O)(=O)[O][Al])[C@@H](OS(=O)(=O)[O][Al])[C@@H]1OS(=O)(=O)[O][Al]` yielded a normalized bacterial growth of 0.976. `CC(=O)Oc1ccc2c(c1)CCC1C2CC[C@]2(C)C(=O)CCC12` (stereo partly specified) was tested, and the normalized bacterial growth was 0.922. `Nc1nc2c(nc(Br)n2C2OC3COP(=O)(O)O[C@@H]3C2O)c(=O)[nH]1` (stereo partly specified) [8-Bromo-cGMP sodium] showed a normalized bacterial growth of 1.01. With `CN(C)c1nc(N(C)C)nc(N(C)C)n1` [Altretamine] the normalized bacterial growth was 0.933. In the case of `Nc1nc2ccc(Cl)cc2c2nc(-c3ccco3)nn12`, the normalized bacterial growth is reported as 0.67. `CCC(C)N(C)C(=O)c1cc2ccccc2c(-c2ccccc2Cl)n1` (stereo unspecified) was tested, and the normalized bacterial growth was 0.897. `COc1cc2c(cc1C(F)(F)F)N(C(=O)Nc1cc(F)cc(-c3cccnc3)c1)CC2` showed a normalized bacterial growth of 0.599. Compound `Cc1c(N(C)CS(=O)(=O)O)c(=O)n(-c2ccccc2)n1C` has a normalized bacterial growth of 1.05. `CN(C)[C@@H]1C(O)=C(C(=O)NCN2CCCC2)C(=O)[C@@]2(O)C(O)=C3C(=O)c4c(O)cccc4[C@@](C)(O)[C@H]3C[C@@H]12` showed a normalized bacterial growth of 0.638. `CN(C)[C@@H]1C(O)=C(C(=O)NCN2CCCC2)C(=O)[C@@]2(O)C(O)=C3C(=O)c4c(O)cccc4[C@@](C)(O)[C@H]3C[C@@H]12` [Rolitetracycline] showed a normalized bacterial growth of 0.538. `CC(NCCC(c1ccccc1)c1ccccc1)c1ccccc1` (stereo unspecified) showed a normalized bacterial growth of 0.567. For `COc1cc2c3cc1Oc1c(OC)c(OC)cc4c1[C@@H](Cc1ccc(O)c(c1)Oc1ccc(cc1)C[C@@H]3N(C)CC2)N(C)CC4`, the normalized bacterial growth was 0.974. In the case of `CCN(CC)CCc1nc(-c2ccccc2)no1` [Oxalamine citrate salt], the normalized bacterial growth is reported as 1.21. For `CC(C)NCC(O)c1ccc(O)c(O)c1` (single isomer, unassigned; (+)) [(+)-Isoproterenol (+)-bitartrate salt], the normalized bacterial growth was 0.852. For `CNCC(O)c1ccc(OC(=O)C(C)(C)C)c(OC(=O)C(C)(C)C)c1` (stereo unspecified) [Dipivefrin hydrochloride], the normalized bacterial growth was 1. `C/C=C(/C)C(=O)O[C@H]1CC(C)=CC(=O)[C@@]2(C)CC[C@@](O)(C(C)C)[C@H]12` gave a normalized bacterial growth of 1.1. For `O=c1c(O[C@@H]2O[C@H](CO)[C@@H](O)[C@H](O)[C@H]2O)c(-c2ccc(O)cc2)oc2cc(O)cc(O)c12`, the normalized bacterial growth was 0.894. Work on `Nc1ncnc2c1c(-c1ccc(Oc3ccccc3)cc1)cn2C1CCCC1` yielded a normalized bacterial growth of 1.14. In the case of `CCc1cn([C@H]2C[C@H](O)[C@@H](CO)O2)c(=O)[nH]c1=O`, the normalized bacterial growth is reported as 0.74. `C[C@@H]1O[C@@H](O[C@H]2[C@H](Oc3cc(O)c4c(=O)cc(-c5ccc(O)cc5)oc4c3)O[C@H](CO)[C@@H](O)[C@@H]2O)[C@H](O)[C@H](O)[C@H]1O` was tested, and the normalized bacterial growth was 1.05 ± 0.086. For `CC(=O)O[C@H]1CC[C@@]2(C)[C@@H](CC[C@@H]3[C@@H]2CC(=O)[C@]2(C)[C@@H]4[C@H](C[C@@H]32)O[C@]2(CC[C@@H](C)CO2)[C@H]4C)C1`, the normalized bacterial growth was 1.06. For `O=c1oc2ccccc2c(O)c1Cc1c(O)c2ccccc2oc1=O`, the normalized bacterial growth was 1.06. Work on `Cn1ccc2cc(NC(=O)Nc3cccnc3)ccc21` yielded a normalized bacterial growth of 0.713. In the case of `COC(=O)/C=C/C(C)=C\C=C\C(C)=C\C=C\C=C(C)\C=C\C=C(C)\C=C\C(=O)O`, the normalized bacterial growth is reported as 0.875. `CC(=O)[C@]1(O)Cc2c(O)c3c(c(O)c2[C@@H](O[C@H]2C[C@H](N)[C@H](O)[C@H](C)O2)C1)C(=O)c1ccccc1C3=O` [Idarubicin] gave a normalized bacterial growth of 1.26. With `CN1CCN(CCCN2c3ccccc3Sc3ccc(Cl)cc32)CC1` the normalized bacterial growth was 0.7. In the case of `CN1CCN(CCCN2c3ccccc3Sc3ccc(Cl)cc32)CC1` [Prochlorperazine dimaleate], the normalized bacterial growth is reported as 1.36. `O=C1c2ccccc2C(=O)c2c1ccc(O)c2O` showed a normalized bacterial growth of 0.869. `CC(=O)Oc1cc(OC(C)=O)c2c(c1)O[C@H](c1ccc(OC(C)=O)c(OC(C)=O)c1)[C@H](OC(C)=O)C2` gave a normalized bacterial growth of 1.12. Compound `C[C@H](CCC(=O)O)[C@H]1CC[C@H]2[C@@H]3[C@H](O)C[C@@H]4C[C@H](O)CC[C@]4(C)[C@H]3CC[C@]12C` [Chenodiol] has a normalized bacterial growth of 0.767. `C[C@H](CCC(=O)O)[C@H]1CC[C@H]2[C@@H]3[C@H](O)C[C@@H]4C[C@H](O)CC[C@]4(C)[C@H]3CC[C@]12C` gave a normalized bacterial growth of 1.01. With `COc1ccc([C@@H]2CC(=O)c3c(O)cc(O[C@@H]4O[C@H](CO)[C@@H](O)[C@H](O)[C@H]4O[C@@H]4O[C@@H](C)[C@H](O)[C@@H](O)[C@H]4O)cc3O2)cc1O` the normalized bacterial growth was 1.08. Work on `CC(=O)OCC(CCn1cnc2cnc(N)nc21)COC(C)=O` yielded a normalized bacterial growth of 0.956. Compound `NCC(O)CC(=O)O` (stereo unspecified) has a normalized bacterial growth of 1.21. In the case of `COc1c2occc2c(OC)c2c(=O)cc(C)oc12`, the normalized bacterial growth is reported as 1.13. For `C1CNCCN1`, the normalized bacterial growth was 1.11.
